The supplement of paper PMC12823440, “Inhibitors supercharge kinase turnover through native proteolytic circuits” (Nature, 2025)
The other results are listed elsewhere or left out. The calls rarely recur for the same compound in another form.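 Kinases, fused to nanoluciferase, were expressed in K562 cells; luminescence was measured every 4 h from 2 to 18 h as percent of control (DMSO = 100%, positive control = 0%). A time point is decreased if signal falls significantly (2 sigma). Hits were called by the authors by a rule that is not shown; the count of time points alone does not decide it.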

By UniProt entry, the sequences of proteins in these tests, tags left out. Where a name states a change or a piece, a line headed by the entry shows the natural chain unless it says otherwise.
UniProt Q06187: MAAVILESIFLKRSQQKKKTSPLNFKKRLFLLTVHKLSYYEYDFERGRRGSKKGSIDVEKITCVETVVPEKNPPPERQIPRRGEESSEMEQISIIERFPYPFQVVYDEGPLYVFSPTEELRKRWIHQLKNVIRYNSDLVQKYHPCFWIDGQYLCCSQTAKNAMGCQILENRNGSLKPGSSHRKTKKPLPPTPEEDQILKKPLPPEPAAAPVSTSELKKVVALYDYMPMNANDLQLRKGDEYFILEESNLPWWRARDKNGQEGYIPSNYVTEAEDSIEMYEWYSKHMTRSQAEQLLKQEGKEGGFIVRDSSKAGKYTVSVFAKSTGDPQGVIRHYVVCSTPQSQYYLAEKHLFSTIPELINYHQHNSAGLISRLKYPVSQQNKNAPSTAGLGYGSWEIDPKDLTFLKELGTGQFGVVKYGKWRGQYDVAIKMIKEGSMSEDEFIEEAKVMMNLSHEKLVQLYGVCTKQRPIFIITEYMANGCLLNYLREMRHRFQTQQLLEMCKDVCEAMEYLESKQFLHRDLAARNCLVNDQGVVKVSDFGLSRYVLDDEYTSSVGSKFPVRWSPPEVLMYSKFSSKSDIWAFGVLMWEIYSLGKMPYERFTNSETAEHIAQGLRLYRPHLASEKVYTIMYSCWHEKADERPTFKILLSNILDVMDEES
UniProt Q9UQM7, whole entry: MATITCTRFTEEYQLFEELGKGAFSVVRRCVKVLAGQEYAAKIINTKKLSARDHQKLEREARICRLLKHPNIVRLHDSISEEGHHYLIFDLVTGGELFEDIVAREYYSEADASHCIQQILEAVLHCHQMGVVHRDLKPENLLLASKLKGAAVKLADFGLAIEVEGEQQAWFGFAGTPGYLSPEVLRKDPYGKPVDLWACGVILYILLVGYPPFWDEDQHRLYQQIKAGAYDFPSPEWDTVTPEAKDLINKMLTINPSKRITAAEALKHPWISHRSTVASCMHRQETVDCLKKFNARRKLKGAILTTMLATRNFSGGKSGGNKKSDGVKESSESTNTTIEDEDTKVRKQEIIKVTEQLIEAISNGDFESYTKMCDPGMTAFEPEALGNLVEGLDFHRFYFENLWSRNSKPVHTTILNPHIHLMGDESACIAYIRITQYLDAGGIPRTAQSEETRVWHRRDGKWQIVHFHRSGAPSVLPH
UniProt Q13555: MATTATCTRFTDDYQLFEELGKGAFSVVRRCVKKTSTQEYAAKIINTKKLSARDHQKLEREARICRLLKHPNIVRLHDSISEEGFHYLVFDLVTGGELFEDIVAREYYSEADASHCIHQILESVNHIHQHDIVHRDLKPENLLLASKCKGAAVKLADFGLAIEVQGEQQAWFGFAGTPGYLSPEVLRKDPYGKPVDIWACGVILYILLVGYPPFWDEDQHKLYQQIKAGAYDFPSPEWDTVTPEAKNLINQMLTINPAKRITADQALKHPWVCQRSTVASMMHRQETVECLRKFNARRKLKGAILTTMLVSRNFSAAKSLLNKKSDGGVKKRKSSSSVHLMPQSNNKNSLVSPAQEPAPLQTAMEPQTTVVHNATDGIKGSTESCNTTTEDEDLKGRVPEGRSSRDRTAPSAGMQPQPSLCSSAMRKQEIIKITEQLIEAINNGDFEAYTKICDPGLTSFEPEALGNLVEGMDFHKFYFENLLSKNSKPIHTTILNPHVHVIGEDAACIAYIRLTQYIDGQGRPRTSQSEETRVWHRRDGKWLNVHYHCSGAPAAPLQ
UniProt Q15131: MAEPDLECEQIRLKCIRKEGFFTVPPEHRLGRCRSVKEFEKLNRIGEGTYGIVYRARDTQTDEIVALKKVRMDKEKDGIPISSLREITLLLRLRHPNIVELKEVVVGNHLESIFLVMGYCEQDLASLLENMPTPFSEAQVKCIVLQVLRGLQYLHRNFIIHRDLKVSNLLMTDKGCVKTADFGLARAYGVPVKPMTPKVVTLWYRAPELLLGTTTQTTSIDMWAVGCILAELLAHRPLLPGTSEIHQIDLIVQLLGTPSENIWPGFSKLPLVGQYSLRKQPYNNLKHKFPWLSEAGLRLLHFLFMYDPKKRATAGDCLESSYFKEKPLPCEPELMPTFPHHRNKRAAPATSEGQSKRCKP
UniProt Q00526: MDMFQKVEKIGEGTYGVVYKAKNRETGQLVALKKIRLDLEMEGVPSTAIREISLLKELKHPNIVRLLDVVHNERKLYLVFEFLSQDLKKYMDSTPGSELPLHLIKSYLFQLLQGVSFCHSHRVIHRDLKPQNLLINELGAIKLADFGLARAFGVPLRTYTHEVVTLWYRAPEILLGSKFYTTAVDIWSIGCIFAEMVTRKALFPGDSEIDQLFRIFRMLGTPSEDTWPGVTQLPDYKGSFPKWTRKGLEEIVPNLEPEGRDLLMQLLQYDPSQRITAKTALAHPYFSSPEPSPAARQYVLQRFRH
UniProt P11802: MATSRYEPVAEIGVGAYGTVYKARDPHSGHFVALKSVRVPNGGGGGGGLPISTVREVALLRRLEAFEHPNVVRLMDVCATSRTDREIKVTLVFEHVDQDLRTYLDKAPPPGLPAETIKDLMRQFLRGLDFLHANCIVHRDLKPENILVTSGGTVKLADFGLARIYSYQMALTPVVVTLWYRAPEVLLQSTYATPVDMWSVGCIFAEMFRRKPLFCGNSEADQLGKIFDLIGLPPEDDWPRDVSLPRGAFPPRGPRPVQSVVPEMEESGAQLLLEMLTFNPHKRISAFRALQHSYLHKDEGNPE
UniProt Q00535, whole entry, looked up: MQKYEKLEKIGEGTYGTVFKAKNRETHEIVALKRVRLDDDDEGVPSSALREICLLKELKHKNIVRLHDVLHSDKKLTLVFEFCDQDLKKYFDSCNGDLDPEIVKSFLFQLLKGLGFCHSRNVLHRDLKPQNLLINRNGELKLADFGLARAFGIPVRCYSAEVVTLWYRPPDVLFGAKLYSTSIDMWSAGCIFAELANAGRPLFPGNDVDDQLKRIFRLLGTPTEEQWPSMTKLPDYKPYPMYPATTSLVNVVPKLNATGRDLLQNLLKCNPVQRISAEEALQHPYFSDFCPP
UniProt Q00534, whole entry: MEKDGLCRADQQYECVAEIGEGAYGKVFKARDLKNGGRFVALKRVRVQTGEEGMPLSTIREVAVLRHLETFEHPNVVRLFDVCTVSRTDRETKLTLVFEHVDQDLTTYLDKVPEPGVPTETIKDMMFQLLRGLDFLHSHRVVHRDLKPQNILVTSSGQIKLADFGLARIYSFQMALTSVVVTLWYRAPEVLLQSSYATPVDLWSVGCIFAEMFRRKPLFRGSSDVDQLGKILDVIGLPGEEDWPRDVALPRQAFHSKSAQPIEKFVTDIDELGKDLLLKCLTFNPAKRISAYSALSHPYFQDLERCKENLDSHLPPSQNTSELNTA

Experiments:
Assay in all cases: kinase-Nluc reporter destabilization hit call (1 = scored as downregulated) (binary); higher = compound decreases kinase abundance
Conditions in all cases: K562; 2-18 h
BRAF_V600E = system: BRAF_V600E
BTK = BTK (UniProt Q06187)
CAMK2A = CAMK2A (UniProt Q9UQM7)
CAMK2G = CAMK2G (UniProt Q13555)
CDK10 = CDK10 (UniProt Q15131)
CDK2 = CDK2 (UniProt P24941)
CDK3 = CDK3 (UniProt Q00526)
CDK4 = CDK4 (UniProt P11802)
CDK5 = CDK5 (UniProt Q00535)
CDK6 = CDK6 (UniProt Q00534)

Measured: kinase-Nluc reporter destabilization hit call

COc1cc2nccc(Oc3ccc(NC(=O)Nc4ccc(F)cc4F)c(F)c3)c2cc1OC (10 µM)
inactive: BRAF_V600E 0 | BTK 0 | CAMK2A 0 | CAMK2G 0 | CDK10 = 0 | CDK2 = 0 | CDK3 = 0 | CDK4 = 0 | CDK5 = 0 | CDK6 = 0

COc1cc(Nc2nc3ccccc3nc2NS(=O)(=O)c2ccc(NC(=O)c3ccc(C)c(OC)c3)cc2)cc(OC)c1 (10 µM)
inactive: BRAF_V600E 0 | BTK 0 | CAMK2A 0 | CAMK2G 0 | CDK10 = 0 | CDK2 = 0 | CDK3 = 0 | CDK4 = 0 | CDK5 = 0 | CDK6 = 0

Cc1cc(/C=C2\CC/C(=C\c3cc(C)c(O)c(C)c3)C2=O)cc(C)c1O [Pentagamavunon-1] (2.5 µM)
inactive: BRAF_V600E 0 | BTK 0 | CAMK2A 0 | CAMK2G 0 | CDK10 = 0 | CDK2 = 0 | CDK3 = 0 | CDK4 = 0 | CDK5 = 0 | CDK6 = 0

CCCC[C@H](CO)Nc1nc(NC)ncc1OC [Interferon receptor inducer-1] (10 µM)
inactive: BRAF_V600E 0 | BTK 0 | CAMK2A 0 | CAMK2G 0 | CDK10 = 0 | CDK2 = 0 | CDK3 = 0 | CDK4 = 0 | CDK5 = 0 | CDK6 = 0

CCCCCC1CC1CC1CC1CCCCCCCC(=O)O (stereo not given) (10 µM)
inactive: BRAF_V600E 0 | BTK 0 | CAMK2A 0 | CAMK2G 0 | CDK10 = 0 | CDK2 = 0 | CDK3 = 0 | CDK4 = 0 | CDK5 = 0 | CDK6 = 0

Cc1cccc(-c2[nH]c(C(C)(C)C)nc2-c2ccc3c(c2)OCO3)n1 (2.5 µM)
inactive: BRAF_V600E 0 | BTK 0 | CAMK2A 0 | CAMK2G 0 | CDK10 = 0 | CDK2 = 0 | CDK3 = 0 | CDK4 = 0 | CDK5 = 0 | CDK6 = 0

C[C@@H]1CN(CC(=O)Nc2ccc3c(c2)Cc2cccc(-c4cc(=O)cc(N5CCOCC5)o4)c2S3)C[C@H](C)O1 (2.5 µM)
inactive: BRAF_V600E 0 | BTK 0 | CAMK2A 0 | CAMK2G 0 | CDK10 = 0 | CDK2 = 0 | CDK3 = 0 | CDK4 = 0 | CDK5 = 0 | CDK6 = 0

CN(C)CCCNc1ccn2ncc(-c3ccc4c(c3)OCO4)c2n1 (10 µM)
inactive: BRAF_V600E 0 | BTK 0 | CAMK2A 0 | CAMK2G 0 | CDK10 = 0 | CDK2 = 0 | CDK3 = 0 | CDK4 = 0 | CDK5 = 0 | CDK6 = 0
